Assay results reported in PMC12639135.
These are yes or no findings as the source states them, for the method shown. In cells and extracts the contact can be indirect. Some entries that bind do so weakly or less than the wild type. Each block holds one substance with its values, some of them ahead of it.

The chains behind the UniProt entries cited, without tags or fusion partners. Where a name states a change or a piece, a line headed by the entry shows the natural chain unless it says otherwise.
UniProt P27694: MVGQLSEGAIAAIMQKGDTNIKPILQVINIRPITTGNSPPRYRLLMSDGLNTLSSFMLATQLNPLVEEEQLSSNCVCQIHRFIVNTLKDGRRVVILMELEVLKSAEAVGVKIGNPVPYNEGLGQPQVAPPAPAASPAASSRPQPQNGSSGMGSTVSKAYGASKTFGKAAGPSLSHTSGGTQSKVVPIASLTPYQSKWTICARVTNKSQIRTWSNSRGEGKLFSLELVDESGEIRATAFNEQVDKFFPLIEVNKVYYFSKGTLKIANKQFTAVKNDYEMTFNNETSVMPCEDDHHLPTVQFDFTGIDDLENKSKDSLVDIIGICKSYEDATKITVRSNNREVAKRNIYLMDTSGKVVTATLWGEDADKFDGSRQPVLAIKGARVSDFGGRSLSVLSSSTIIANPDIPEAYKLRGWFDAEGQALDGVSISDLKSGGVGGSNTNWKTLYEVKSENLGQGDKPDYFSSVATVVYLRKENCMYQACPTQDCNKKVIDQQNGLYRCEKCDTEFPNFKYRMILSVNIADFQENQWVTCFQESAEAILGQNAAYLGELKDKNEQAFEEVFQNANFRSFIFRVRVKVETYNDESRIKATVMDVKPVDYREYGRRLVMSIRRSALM
UniProt O14929: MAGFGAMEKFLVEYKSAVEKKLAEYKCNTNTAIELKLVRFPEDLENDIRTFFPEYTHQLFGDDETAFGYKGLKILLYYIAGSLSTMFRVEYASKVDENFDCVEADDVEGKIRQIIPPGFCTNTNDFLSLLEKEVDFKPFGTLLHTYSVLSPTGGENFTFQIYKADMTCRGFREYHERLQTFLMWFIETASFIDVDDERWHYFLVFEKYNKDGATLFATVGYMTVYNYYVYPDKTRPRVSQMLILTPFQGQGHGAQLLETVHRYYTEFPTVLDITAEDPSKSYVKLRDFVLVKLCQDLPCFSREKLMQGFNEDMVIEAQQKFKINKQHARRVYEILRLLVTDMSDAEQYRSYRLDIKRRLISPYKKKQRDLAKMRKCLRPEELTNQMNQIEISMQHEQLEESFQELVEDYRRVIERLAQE
UniProt P54132: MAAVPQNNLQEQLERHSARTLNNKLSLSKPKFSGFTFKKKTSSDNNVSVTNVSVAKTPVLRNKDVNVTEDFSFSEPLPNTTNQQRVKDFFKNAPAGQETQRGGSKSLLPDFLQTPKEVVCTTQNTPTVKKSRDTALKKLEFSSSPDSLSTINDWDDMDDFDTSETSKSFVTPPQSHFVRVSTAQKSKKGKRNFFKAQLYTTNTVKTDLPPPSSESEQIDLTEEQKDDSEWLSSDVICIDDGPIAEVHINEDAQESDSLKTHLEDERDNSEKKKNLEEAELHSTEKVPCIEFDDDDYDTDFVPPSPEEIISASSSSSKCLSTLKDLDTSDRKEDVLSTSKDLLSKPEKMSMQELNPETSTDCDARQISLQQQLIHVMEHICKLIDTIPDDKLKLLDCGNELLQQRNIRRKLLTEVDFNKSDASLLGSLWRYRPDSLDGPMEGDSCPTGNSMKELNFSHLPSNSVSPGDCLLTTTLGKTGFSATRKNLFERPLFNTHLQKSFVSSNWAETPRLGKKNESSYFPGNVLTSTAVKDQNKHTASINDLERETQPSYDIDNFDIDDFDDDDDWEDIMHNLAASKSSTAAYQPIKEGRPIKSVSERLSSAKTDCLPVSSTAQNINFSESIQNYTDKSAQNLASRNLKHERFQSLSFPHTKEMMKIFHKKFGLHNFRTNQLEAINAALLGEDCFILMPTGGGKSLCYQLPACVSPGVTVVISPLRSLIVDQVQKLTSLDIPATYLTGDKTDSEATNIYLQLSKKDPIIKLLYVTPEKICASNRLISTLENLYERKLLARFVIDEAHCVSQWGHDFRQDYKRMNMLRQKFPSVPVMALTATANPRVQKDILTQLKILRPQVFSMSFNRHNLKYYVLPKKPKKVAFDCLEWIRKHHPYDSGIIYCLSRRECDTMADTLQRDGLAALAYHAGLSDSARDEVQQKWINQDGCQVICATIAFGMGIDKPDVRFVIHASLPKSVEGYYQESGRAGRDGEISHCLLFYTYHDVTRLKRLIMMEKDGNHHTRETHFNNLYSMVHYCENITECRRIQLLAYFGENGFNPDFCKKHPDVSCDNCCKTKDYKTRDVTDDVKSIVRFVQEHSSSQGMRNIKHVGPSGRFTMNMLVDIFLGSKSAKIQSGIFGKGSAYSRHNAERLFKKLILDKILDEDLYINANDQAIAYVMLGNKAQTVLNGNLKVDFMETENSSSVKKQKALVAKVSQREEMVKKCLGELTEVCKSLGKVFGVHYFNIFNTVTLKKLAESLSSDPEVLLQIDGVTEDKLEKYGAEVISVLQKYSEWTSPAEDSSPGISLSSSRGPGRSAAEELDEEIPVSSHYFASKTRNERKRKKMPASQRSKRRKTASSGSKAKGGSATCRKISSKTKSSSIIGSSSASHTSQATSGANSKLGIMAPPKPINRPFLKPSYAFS

Legend:
[1] = target: RPA1 (endogenous) (human (endogenous in A549 and H1299)) (UniProt P27694); assay: co-IP; endogenous proteins, A549 and H1299 lysates (Western and IP lysis buffer), antibody on magnetic beads, 4 °C overnight, Western blot
HA-tagged HAT1 = HA-tagged HAT1 (UniProt O14929); assay: co-IP; exogenous HAT1 and exogenous RPA1 in 293T cells, HA-Trap, Western blot
Flag-tagged HAT1 = Flag-tagged HAT1 (UniProt O14929); assay: co-IP; proteins that interact with HAT1, shown by silver staining; cell line not stated
RPA1 K167R = RPA1 K167R (UniProt P27694); assay: co-IP; 293T cells transfected with RPA1 or RPA1 K88R, K163R, K167R, K267R; RPA1-bound endogenous HR factors detected
Flag-tagged RPA1 [2] = target: Flag-tagged RPA1 (UniProt P27694); assay: as above
RPA1 K88R = RPA1 K88R (UniProt P27694); assay: as above
RPA1 K163R = RPA1 K163R (UniProt P27694); assay: as above
RPA1 K267R = RPA1 K267R (UniProt P27694); assay: as above
Flag-tagged RPA1 [3] = target: Flag-tagged RPA1 (UniProt P27694); assay: co-IP; exogenous HAT1 and exogenous RPA1 in 293T cells, Flag-Trap, Western blot

Substance: Flag-tagged RPA1 (from UniProt P27694 1-616)
binding (HA-tagged HAT1): binds

Substance: RPA1 (endogenous) (from UniProt P27694 1-616)
binding (Flag-tagged HAT1): binds

Substance: BLM (endogenous) (from UniProt P54132 1-1417)
binding (RPA1 K167R): binds
binding (Flag-tagged RPA1 [2]): binds
binding (RPA1 K88R): binds
binding (RPA1 K163R): binds
binding (RPA1 K267R): binds

Other lines, results leading:

binding [1]: binds
Substance: HAT1 (endogenous) (from UniProt O14929 1-419)

binding (Flag-tagged RPA1 [3]): binds
Substance: HA-tagged HAT1 (from UniProt O14929 1-419)
